Data from patent publication US20210169077A1, “METHOD FOR IMPROVING SEED GERMINATION AND/OR PLANT TOLERANCE TO ENVIRONMENTAL STRESS” (DANSTAR FERMENT AG, priority 2017, published 2021).

Test system: corn plant Variety 1
Experiment: Seed weight after treatment with glycine-betaine compared to non-treated seed weight
Format: in vivo
Details: corn Variety 1; Rep 1-3

For `C[N+](C)(C)CC(=O)[O-]` [GB, N,N,N-trimethylglycine], the “Seed weight, Mean GB (plants treated with GB)” value was 532.96 g and 317.39 g and 363.11 g.

Values joined by “and” are separate entries in the source; they are usually repeats but may differ in a detail not shown here. Equal entries are not always repeated.
